# Data published in publication PMC11334222.
# Chains of the proteins cited; added tags and fusions are not shown.
# UniProt Q9Y6M1: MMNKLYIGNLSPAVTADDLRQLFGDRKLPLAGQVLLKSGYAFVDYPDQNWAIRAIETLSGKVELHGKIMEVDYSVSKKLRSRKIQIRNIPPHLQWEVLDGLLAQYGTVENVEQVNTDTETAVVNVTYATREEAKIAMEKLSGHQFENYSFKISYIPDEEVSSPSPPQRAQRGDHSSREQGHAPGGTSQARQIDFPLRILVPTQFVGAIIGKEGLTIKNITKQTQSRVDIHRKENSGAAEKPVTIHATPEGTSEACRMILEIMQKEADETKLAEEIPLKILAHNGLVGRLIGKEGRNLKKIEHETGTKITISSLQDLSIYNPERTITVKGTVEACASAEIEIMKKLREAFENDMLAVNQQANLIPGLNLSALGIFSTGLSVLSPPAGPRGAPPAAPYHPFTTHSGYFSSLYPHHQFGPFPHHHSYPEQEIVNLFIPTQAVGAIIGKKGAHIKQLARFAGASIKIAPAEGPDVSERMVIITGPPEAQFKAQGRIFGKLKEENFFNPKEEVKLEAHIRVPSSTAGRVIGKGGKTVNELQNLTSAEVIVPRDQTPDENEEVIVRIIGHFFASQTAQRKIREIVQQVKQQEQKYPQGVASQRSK
# UniProt Q15717: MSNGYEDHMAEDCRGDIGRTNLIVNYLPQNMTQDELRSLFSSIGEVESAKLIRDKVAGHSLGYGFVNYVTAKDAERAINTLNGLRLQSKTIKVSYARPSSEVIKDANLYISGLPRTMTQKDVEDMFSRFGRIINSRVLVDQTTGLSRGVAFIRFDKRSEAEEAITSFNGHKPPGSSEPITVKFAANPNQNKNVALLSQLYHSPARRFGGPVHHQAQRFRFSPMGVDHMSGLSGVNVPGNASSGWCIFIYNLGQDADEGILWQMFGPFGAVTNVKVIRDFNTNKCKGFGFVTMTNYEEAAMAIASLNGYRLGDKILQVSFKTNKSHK
# Results are given in words; binding and its absence hold for the method and conditions named. Binding seen in cells or lysates may run through a third protein. Some binding calls cover weakened binding; strength is not graded here.
# Molecular target: IGF2BP2 (human (endogenous in ASC hTERT adipocytes)) (UniProt Q9Y6M1)
# Assay: co-IP; immunoprecipitation of endogenous IGF2BP2 from ASC hTERT adipocytes, western blot probed for HuR
substance,measurement,value
HuR (from UniProt Q15717 1-326),binding,binds
